Data as given in PubChem BioAssay AID1053208 (Peter MacCallum Cancer Centre, 2014)

Aim: 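Genes whose silencing cuts survival of bone tumour cells only with doxorubicin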 (primary screen)
Cells: mouse osteosarcoma cells, early-passage culture from an engineered mouse model of fibroblastic bone tumour
Knock-down reagent: siRNA pool against mouse genes, 40 nM
Timing: about 120 h (48 h before drug, then 72 h with drug)
Treatment: doxorubicin 100 nM for 72 h, roughly 30-40% inhibitory dose
Measured: 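Luminescent ATP signal taken as viability with or without 100 nM doxorubicin for 72 h; mean of two wells set against non-targeting siRNA and turned into robust z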
Direction: viability z-score with doxorubicin and doxorubicin viability vs non-targeting: higher = more viable cells under doxorubicin; viability z-score without drug: higher = more viable cells with knock-down alone; z-score of drug to no-drug ratio: higher = less drug sensitisation by knock-down
Call rule: 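a pool counts as active when its viability z-score with doxorubicin is -2 or below and its z-score without drug lies between -2 and 2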
In all, the deposit lists about 17,000 reagents; this is an unselected part. 788 of all reagents (4.7%) count as active. 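Calls rest on z-score classes alone; an extra cut-off of viability at most 70% of control was not applied to them.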 Entries without a mark were called inactive. Reagent sequences are not shown.

gene symbol	combined z-score class	viability z-score with doxorubicin	viability z-score without drug	z-score of drug to no-drug ratio	doxorubicin viability vs non-targeting
Bmp3 (bone morphogenetic protein 3)	low cell count without drug only	-1.57	-2.53	0.22	0.8
Mtrex (Mtr4 exosome RNA helicase)	no change with or without drug	0	-0.17	0.22	0.94
Pspn (persephin)	no change with or without drug	-0.56	-0.51	-0.11	0.89
Cmtm5 (CKLF-like MARVEL transmembrane domain containing 5)	no change with or without drug	0.79	-0.67	1.46	1.01
H2al1m (H2A histone family member L1M)	no change with or without drug	0.22	0.51	0	0.96
Lhx9 (LIM homeobox protein 9)	no change with or without drug	-0.45	0.51	-0.67	0.9
Pus10 (pseudouridylate synthase 10)	no change with or without drug	-0.9	0.34	-1.01	0.86
Drg2 (developmentally regulated GTP binding protein 2)	no change with or without drug	0.22	-0.84	1.01	0.96
Cst3 (cystatin C)	high cell count with doxorubicin only	2.25	-0.51	2.92	1.14
Cd40 (CD40 antigen)	no change with or without drug	0.9	-0.17	1.24	1.02
Zik1 (zinc finger protein interacting with K protein 1)	no change with or without drug	-0.22	1.52	-1.12	0.92
Asb6 (ankyrin repeat and SOCS box-containing 6)	no change with or without drug	0.79	0.34	0.67	1.01
Pcnx3 (pecanex homolog 3)	no change with or without drug	0.9	1.18	0.22	1.02
1700088E04Rik (RIKEN cDNA 1700088E04 gene)	no change with or without drug	-1.24	-0.51	-0.9	0.83
Cfc1 (cryptic, EGF-CFC family member 1)	no change with or without drug	-0.34	-1.18	0.56	0.91
Fstl4 (follistatin-like 4)	no change with or without drug	0.22	0.67	-0.11	0.96
Atm (ataxia telangiectasia mutated)	no change with or without drug	1.01	-1.35	2.25	1.03
Tas2r102 (taste receptor, type 2, member 102)	low cell count with doxorubicin only (active)	-3.04	0.34	-3.26	0.67
Smad9 (SMAD family member 9)	no change with or without drug	0.45	-0.17	0.67	0.98
Mtg2 (mitochondrial ribosome associated GTPase 2)	low cell count with doxorubicin only (active)	-2.81	-0.17	-2.81	0.69
Nat8f1 (N-acetyltransferase 8 (GCN5-related) family member 1)	low cell count with doxorubicin only (active)	-2.36	-1.52	-1.46	0.73
Tc2n (tandem C2 domains, nuclear)	no change with or without drug	-1.57	-0.51	-1.24	0.8
Adra2c (adrenergic receptor, alpha 2c)	no change with or without drug	0	-0.34	0.34	0.94
Runx1t1 (RUNX1 translocation partner 1)	no change with or without drug	-0.67	-1.52	0.45	0.88
Rbm17 (RNA binding motif protein 17)	low cell count with doxorubicin only (active)	-3.82	-1.52	-3.15	0.6
Il4 (interleukin 4)	no change with or without drug	-1.12	-1.18	-0.34	0.84
Mia (MIA SH3 domain containing)	no change with or without drug	-0.45	1.35	-1.24	0.9
Cdh8 (cadherin 8)	no change with or without drug	0.11	1.52	-0.79	0.95
Vamp1 (vesicle-associated membrane protein 1)	no change with or without drug	-0.9	-0.84	-0.22	0.86
Mtrf1l (mitochondrial translational release factor 1-like)	no change with or without drug	0	0.84	-0.45	0.94
Rspo4 (R-spondin 4)	no change with or without drug	0	0.51	-0.22	0.94
Riox2 (ribosomal oxygenase 2)	no change with or without drug	-0.11	1.01	-0.67	0.93
Dmac1 (distal membrane arm assembly complex 1)	no change with or without drug	1.35	-1.18	2.47	1.06
Akt3 (Akt serine/threonine kinase 3)	no change with or without drug	1.69	0.51	1.46	1.09
Prl7d1 (prolactin family 7, subfamily d, member 1)	no change with or without drug	0.56	-1.01	1.46	0.99
Obox6 (oocyte specific homeobox 6)	high cell count with doxorubicin only	2.81	0.84	2.36	1.19
Ssxb13 (SSX member B13)	no change with or without drug	0.22	0	0.34	0.96
Scarf2 (scavenger receptor class F, member 2)	no change with or without drug	1.35	1.18	0.67	1.06
4932425I24RIK	no change with or without drug	-0.45	0.34	-0.56	0.9
Vps9d1 (VPS9 domain containing 1)	no change with or without drug	1.35	-0.17	1.69	1.06
Sar1b (secretion associated Ras related GTPase 1B)	no change with or without drug	-1.35	-0.51	-1.01	0.82
Naip5 (NLR family, apoptosis inhibitory protein 5)	no change with or without drug	0.56	0.84	0.11	0.99
Klf16 (Kruppel-like transcription factor 16)	no change with or without drug	0.22	-0.17	0.45	0.96
Or8k33 (olfactory receptor family 8 subfamily K member 33)	no change with or without drug	0.45	0.17	0.45	0.98
Mink1 (misshapen-like kinase 1 (zebrafish))	no change with or without drug	0.67	0.51	0.45	1
Brf1	no change with or without drug	0.67	-1.18	1.8	1
Klra2 (killer cell lectin-like receptor, subfamily A, member 2)	no change with or without drug	-0.45	-0.67	0.11	0.9
Glipr1l2 (GLI pathogenesis-related 1 like 2)	no change with or without drug	0.45	0.84	0	0.98
Aqp7 (aquaporin 7)	no change with or without drug	-1.12	-1.52	0	0.84
Efna2 (ephrin A2)	low cell count without drug only	-1.35	-2.02	0.11	0.82
